Reference: paper PMC4089482, “Bacterial periplasmic sialic acid-binding proteins exhibit a conserved binding site” (Acta Crystallographica Section D: Biological Crystallography, 2014)
These are yes or no findings as the source states them, for the method shown.

Sequences of proteins named here, by UniProt entry; tags and fusion partners are left off. Residues count along the entry.
UniProt Q9KR64, residues 23-321: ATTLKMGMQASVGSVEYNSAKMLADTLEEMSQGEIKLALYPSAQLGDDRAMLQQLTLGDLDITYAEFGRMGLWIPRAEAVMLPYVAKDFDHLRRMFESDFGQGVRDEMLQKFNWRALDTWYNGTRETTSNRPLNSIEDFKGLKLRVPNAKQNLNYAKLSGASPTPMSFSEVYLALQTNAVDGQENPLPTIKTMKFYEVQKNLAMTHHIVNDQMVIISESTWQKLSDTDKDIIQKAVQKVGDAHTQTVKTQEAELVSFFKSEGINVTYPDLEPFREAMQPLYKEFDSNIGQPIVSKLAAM

Biological target: Vibrio cholerae sialic acid-binding periplasmic protein SiaP (Vc-SiaP) (V. cholerae) (UniProt Q9KR64)
Assay: SEC; both purified

Q: “Vibrio cholerae sialic acid-binding periplasmic protein SiaP (Vc-SiaP) (from UniProt Q9KR64 23-321)” was tested. Which binding did it give?
A: no binding
